Sequences of proteins named here, by UniProt entry; tags and fusion partners are left off. A change or cut given only in a name is not applied to a line headed by its entry.
UniProt Q13136: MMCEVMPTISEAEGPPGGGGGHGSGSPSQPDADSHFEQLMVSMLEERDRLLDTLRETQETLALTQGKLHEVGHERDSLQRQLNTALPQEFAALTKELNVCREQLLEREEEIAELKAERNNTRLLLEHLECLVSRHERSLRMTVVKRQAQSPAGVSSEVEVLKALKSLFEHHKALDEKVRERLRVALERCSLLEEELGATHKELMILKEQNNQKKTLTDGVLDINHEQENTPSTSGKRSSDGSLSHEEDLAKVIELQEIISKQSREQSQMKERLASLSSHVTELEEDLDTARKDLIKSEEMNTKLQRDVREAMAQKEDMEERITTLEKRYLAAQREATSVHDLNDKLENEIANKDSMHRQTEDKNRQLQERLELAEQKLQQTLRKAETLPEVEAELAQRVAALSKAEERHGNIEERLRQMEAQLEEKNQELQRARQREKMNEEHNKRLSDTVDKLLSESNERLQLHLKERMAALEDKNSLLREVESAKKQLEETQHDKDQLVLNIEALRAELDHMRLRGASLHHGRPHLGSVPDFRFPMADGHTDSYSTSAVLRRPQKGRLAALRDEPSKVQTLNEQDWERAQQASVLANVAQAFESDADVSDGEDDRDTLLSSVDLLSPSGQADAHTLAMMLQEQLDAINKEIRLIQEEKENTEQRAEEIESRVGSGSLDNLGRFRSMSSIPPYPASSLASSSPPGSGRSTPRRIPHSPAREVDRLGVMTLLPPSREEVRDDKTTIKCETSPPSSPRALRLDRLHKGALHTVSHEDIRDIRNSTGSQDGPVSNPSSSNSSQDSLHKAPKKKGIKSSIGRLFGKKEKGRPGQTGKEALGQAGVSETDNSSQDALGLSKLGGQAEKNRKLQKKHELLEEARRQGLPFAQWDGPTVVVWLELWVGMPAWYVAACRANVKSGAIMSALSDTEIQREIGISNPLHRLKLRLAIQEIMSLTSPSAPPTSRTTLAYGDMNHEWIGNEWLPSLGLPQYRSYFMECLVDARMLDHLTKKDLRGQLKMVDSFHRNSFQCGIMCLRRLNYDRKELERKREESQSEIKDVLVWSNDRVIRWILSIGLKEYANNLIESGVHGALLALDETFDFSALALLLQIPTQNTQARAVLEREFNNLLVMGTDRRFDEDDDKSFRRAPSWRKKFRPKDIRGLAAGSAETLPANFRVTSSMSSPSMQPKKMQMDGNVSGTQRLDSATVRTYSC
UniProt P67775: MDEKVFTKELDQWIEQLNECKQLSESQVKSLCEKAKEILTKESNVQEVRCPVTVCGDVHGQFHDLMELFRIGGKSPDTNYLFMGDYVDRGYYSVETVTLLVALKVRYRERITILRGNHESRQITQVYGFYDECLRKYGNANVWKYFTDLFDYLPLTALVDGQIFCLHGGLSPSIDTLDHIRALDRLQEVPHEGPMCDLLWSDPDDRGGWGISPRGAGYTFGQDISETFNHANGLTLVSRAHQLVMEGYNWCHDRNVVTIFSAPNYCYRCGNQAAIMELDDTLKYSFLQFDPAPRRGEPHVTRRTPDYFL

In paper doi:10.1101/2024.06.18.599485:

Target: GFP-tagged full-length liprin-α1 (WT) (UniProt Q13136)
Experiment: affinity purification with mass spectrometry

For “PP2A catalytic subunit (PPP2CA/CB) (from UniProt P67775)”, the binding was “binds”.

Results are given in words; binding and its absence hold for the method and conditions named. In cells and extracts the contact can be indirect. These calls come from enrichment with a bait or labelling near it, and not all partners need be listed.
